The whole screen tested about 360,000 compounds, of which about 9,100 (2.5%) were called active. This list was built around the results that the source calls inconclusive (neither active nor inactive); the mix of calls is not that of the screen. No stated cut-off is given here; in the data, active means max response below about -50%; inconclusive means no clear call, values can overlap the other calls; inactive means above that.
biological target: D(3) dopamine receptor (Homo sapiens) (UniProt P35462); assay: qHTS of D3 Dopamine Receptor Antagonist: qHTS; conditions: D3R cells, DiscoveRx beta-arrestin luminescence, antagonist mode; hits give low values
Summary of the method: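 Cells plated overnight at 1500 cells/well, then exposed to library compounds with dopamine controls for 90 minutes at 37 degrees C. DiscoveRx reagent added for 30–60 minutes at room temperature; luminescence read, quantitative HTS format.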
On the % scale 0 is the no-effect control and ±100 the full control effect.

Protein sequences, listed by entry. Tags and fused reporters are not part of them.
UniProt P35462, whole entry, looked up: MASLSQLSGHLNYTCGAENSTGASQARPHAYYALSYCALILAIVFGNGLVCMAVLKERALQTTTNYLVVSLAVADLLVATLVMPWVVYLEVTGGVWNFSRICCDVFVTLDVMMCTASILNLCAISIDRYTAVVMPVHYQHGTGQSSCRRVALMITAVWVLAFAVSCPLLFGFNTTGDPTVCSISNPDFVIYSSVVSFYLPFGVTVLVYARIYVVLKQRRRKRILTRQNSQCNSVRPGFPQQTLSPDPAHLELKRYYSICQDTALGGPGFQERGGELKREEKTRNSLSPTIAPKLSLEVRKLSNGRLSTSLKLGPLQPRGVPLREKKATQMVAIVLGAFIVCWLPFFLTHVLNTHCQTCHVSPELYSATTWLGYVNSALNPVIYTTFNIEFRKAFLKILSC

SMILES | max response, negative = inhibition
CC(=NCCN1CCOCC1)c1c(O)n(Cc2ccccc2)c(=O)[nH]c1=O | inactive: 6.38%
CN(C)c1ccc(CCN2CCOCC2)cc1 | inconclusive: -48.3%
Cn1c(=O)c2c(nc(N/N=C/c3c(O)n(C4CCCCC4)c(=S)[nH]c3=O)n2C)n(C)c1=O | inconclusive: -35.7%
COc1ccc(CCNC2CCCCC2)cc1OC | inactive: -5.8%
Cc1ccc(OCC(=O)N2CCN(CC3CC4C=CC3C4)CC2)cc1 (stereo unspecified) | inconclusive: -30.2%
O=C(c1ccc2c(c1)OCO2)C1CCCN(Cc2c(F)cccc2Cl)C1 (stereo unspecified) | inconclusive: -44.8%
CN1[C@@H]2CC[C@H]1CC(OC1c3ccccc3CCc3ccccc31)C2 (stereo partly specified) | active: -91.2%
CCOC(=O)COc1ccc(/C=C2\C(=O)NC(=S)N(c3ccc(OC)cc3)C2=O)cc1OC | inconclusive: -32.5%
CCCCNC(=O)c1c(N)n(Cc2ccc3c(c2)OCO3)c2nc3ccccc3nc12 | inactive: -3.5%
CN1C(=O)/C(=C/c2ccc(N3CCCCCC3)o2)C(=O)NC1=S | active: -55.9%
CCN1CCN(Cc2ccc(C)cc2)CC1 | inconclusive: -31.6%
CCC(=NCc1ccc2c(c1)OCO2)c1c(O)n(C)c(=O)n(C)c1=O | inconclusive: -44.8%
CCC(=O)C(CCN1CCOCC1)(c1ccccc1)c1ccccc1 | inactive: -15.1%
Cc1ccc(N2C(=O)NC(=O)/C(=C/C=C/c3ccco3)C2=O)cc1 | inconclusive: -38.3%
CCCCn1nnnc1C(c1cccc2ccccc12)N1CCC2(CC1)C(=O)NCN2c1ccccc1 (stereo unspecified) | inconclusive: -34.3%
Cc1ccc(S(=O)(=O)Oc2ccccc2C=C2C(=O)NC(=O)NC2=O)cc1 | inconclusive: -36.8%
COc1ccc(C=O)cc1O | inconclusive: -32.7%
Cc1cccn2c(=O)c3c(nc12)N1CCC(Cc2ccccc2)CC1C1(C3)C(=O)N(C)C(=O)N(C)C1=O (stereo unspecified) | inconclusive: -43%
COC(=O)C1=C(c2ccc(Cl)c(C(F)(F)F)c2)C[C@@H]2CC[C@H]1N2C(=O)NC1CC1 | inconclusive: -45.5%

Looked up by compound from above, four records:
SMILES | max response, negative = inhibition
COC(=O)C1=C(c2ccc(Cl)c(C(F)(F)F)c2)C[C@@H]2CC[C@H]1N2C(=O)NC1CC1 | inconclusive: -45.5%
Cc1ccc(N2C(=O)NC(=O)/C(=C/C=C/c3ccco3)C2=O)cc1 | inconclusive: -38.3%
CN1[C@@H]2CC[C@H]1CC(OC1c3ccccc3CCc3ccccc31)C2 (stereo partly specified) | active: -91.2%
Cc1ccc(S(=O)(=O)Oc2ccccc2C=C2C(=O)NC(=O)NC2=O)cc1 | inconclusive: -36.8%

More compounds:

SMILES | max response, negative = inhibition
COc1ccccc1CCNC(=O)CCC(=O)N1CC2C[C@@H](C1)Cn1c2cccc1=O | inconclusive: -48.3%
CN1CCC(N(C)c2nc(-c3ccccc3)nc3ccccc23)CC1 | inactive: -23.7%
Cc1oc(-c2ccccc2Cl)nc1CN1C(=O)CN=C(c2ccccc2)c2ccccc21 | inconclusive: -30.1%
Cc1cccc(C)c1-n1nnnc1C(c1cccc2ccccc12)N1CCC2(CC1)C(=O)NCN2c1ccccc1 (stereo unspecified) | inconclusive: -35.7%
CCOc1ccc2nc(N=Nc3c(O)[nH]c(=S)[nH]c3=O)sc2c1 | inconclusive: -35.6%
C1=C(c2ccccc2)CCNC1 | active: -51.7%
O=c1[nH]c2ccccc2n1C1CCN(Cc2ccc(-c3nc4ccccc4nc3-c3ccccc3)cc2)CC1 | active: -92.3%
COC(=O)C1=C(c2cccc(OCc3ccccc3)c2)C[C@@H]2CC[C@H]1N2C(=O)NCc1ccccc1OC | active: -51.6%
COC(=O)C1=C(c2ccc(F)cc2OCc2ccccc2)C[C@@H]2CC[C@H]1N2C(=O)NCc1ccc(F)cc1 | inactive: -14%
COC(=O)C(Cc1ccc(N(CCCl)CCCl)cc1)N=Cc1ccccc1O (stereo unspecified) | inconclusive: -45.8%
O=C(C1CC(=O)N(C2CCCCC2)C1)N1CCC2(CC1)OCCO2 (stereo unspecified) | inconclusive: -39.9%
c1cncc(CNCCN2CCNCC2)c1 | inconclusive: -30%
N#CC1=C(N)Oc2c(c(=O)sc3ccccc23)C1c1ccncc1 (stereo unspecified) | inactive: 9.72%
CC(C)(C)c1nc(NCc2ccc3c(c2)OCO3)c2nnn(Cc3ccccc3Cl)c2n1 | inactive: 5.02%
OC(C#CCN1CCOCC1)(c1ccccc1)C1CCCC1 (stereo unspecified) | inconclusive: -47.3%
CCN1CCN(c2ccc(N)cc2C)CC1 | inconclusive: -34.8%
COc1ccc2c3c1OC1C(=O)CC[C@@]4(O)[C@@H](C2)N(CC2CC2)CC[C@]314 (stereo partly specified) | inactive: -2.39%
CCc1ccccc1N1C(=O)NC(=O)/C(=C\c2cc(C)n(C)c2C)C1=O | inconclusive: -47.2%
O=C(Cc1ccccc1F)N1CCN(CC(=O)N2CCCC2)CC1 | inactive: 14.6%

SMILES | max response, negative = inhibition
COc1cc2[nH]c(=O)n(-c3cccc(Cl)c3)c(=O)c2cc1OC | inconclusive: -30%
COc1ccccc1OCC(=O)N1CCCC(N(C)Cc2ccccc2)C1 (stereo unspecified) | inactive: -19.8%
OC12ONC(c3ccccn3)C1N1CCC2CC1 (stereo unspecified) | inconclusive: -32.8%
COc1cc2[nH]c(=O)n(-c3ccc(C)cc3)c(=O)c2cc1OC | inactive: -21.5%
COc1ccc(Cl)cc1C(=O)C1CCCN(Cc2cnc(C)s2)C1 (stereo unspecified) | active: -55.8%
CN(CCOc1ccc(C=C2C(=O)NC(=O)NC2=O)cc1)c1ccccn1 | inconclusive: -40.2%
CCCCn1c(O)c(C(C)=NCCCN(CC)CC)c(=O)[nH]c1=O | inconclusive: -43.2%
O=c1[nH]c2ccccc2n1C1CCN(C(c2nnnn2Cc2ccccc2)C2CC2)CC1 (stereo unspecified) | inconclusive: -33.7%
CC(=O)c1cn(Cc2ccc(F)cc2)c2ccccc12 | inconclusive: -35.1%
COc1ccc2c(c1)[nH]c1c(C)nccc12 | inconclusive: -41%
O=C1NCN(c2ccccc2)C12CCN(C(c1ccccc1)c1nnnn1Cc1ccccc1)CC2 (stereo unspecified) | inconclusive: -35.1%
COc1ccc(OC)c(-n2c(O)c(C=NCc3ccc4c(c3)OCO4)c(=O)[nH]c2=O)c1 | inactive: 19.8%
Oc1c(Cl)c(Cl)c(Cl)c(Cl)c1Cl | inactive: 38.3%
COc1ccc(OC)c(C(O)C2CCCCN2)c1 (stereo unspecified) | active: -61.3%
COC(=O)C1=C(c2cccc(OCc3ccccc3)c2)C[C@@H]2CC[C@H]1N2C(=O)NCc1ccc(Cl)cc1 | active: -51.8%
O=c1c2ccccc2[nH]c(=S)n1-c1ccc2c(c1)OCCO2 | inconclusive: -39.5%
C=CCn1c(O)c(C(C)=NCc2cc(OC)cc(OC)c2)c(=O)[nH]c1=O | inactive: 9.37%
COc1cc(CNCCc2c[nH]c3ccccc23)cc(OC)c1 | active: -68.5%

Reference: PubChem BioAssay AID652054 (National Center for Advancing Translational Sciences (NCATS), 2013)
